At least one compound was matched to its structure with a doubt left.
Tested on: non-alcoholic steatohepatitis C57BL/6 mouse model induced by the methionine and choline deficient (MCD) diet
Test: Non-alcoholic steatohepatitis treatment model (MCD diet), 6 weeks repeated oral administration
Type: in vivo, C57BL/6 mice
Conditions: for Hydroxyproline expression area level: 10 mg/kg/day (G3, G4)
Description: The MCD model, which is an animal model of steatohepatitis, was used. C57BL/6 mice were supplied with a MCD (methionine-choline deficient) diet for 5 days, followed by a normal diet for 2 days. In this way, for 10 weeks, the MCD diet and normal diet were alternately supplied. Animals were identified using tail marks during the acclimatization period (blue), dosing and observation period (red). Individual identification cards, distinguished by color, were attached to the breeding box, and an animal room usage record was attached to the entrance of the breeding room.
During the acclimatization period, blood biochemical tests and body weight measurements were performed. Mice were randomly distributed so that the average of each group was distributed as uniformly as possible according to the ranked ALT and body weight levels. [10 animals in the normal feed group (G1), 40 animals in the MCD diet group (G2-G5)]
The improvement effect that appeared when the test compound was repeatedly administered for 6 weeks to the non-alcoholic steatohepatitis C57BL/6 mouse model induced over 10 weeks with the MCD diet was evaluated. Test compound was administered once a day for 6 weeks. As a positive control, obeticholic acid (hereinafter referred to as OCA), which is currently undergoing a phase 3 clinical trial with non-alcoholic steatohepatitis as an indication, was used.
In the case of a control compound (obeticholic acid, 10 mg/kg/day), an appropriate amount was weighed and then diluted in sterile distilled water and administered. In the case of the test compound, after weighing the appropriate amount, it was diluted with 0.5 wt % methyl cellulose aqueous solution to which 1 wt % Tween 80 was added. During oral administration, the weight of the mouse was measured, and the animals were fixed using the cervical skin fixation method, and each test compound was administered using a sonde for oral administration.
It was measured at the start of administration, and once a week and on the day of autopsy after the start of administration.
It was measured right before the start of administration, and once a week after the start of administration of the test compound. As for the measurement method, the remaining amount of feed was measured per unit of breeding box next day after quantitative feeding, the difference was calculated, and the average intake per mouse was calculated.
The following items were tested using a blood biochemical analyzer (7180 Hitachi, Japan) with blood collected and separated at right before and the 6th week (the day of autopsy) after administration of the test compound. […]

In the case of `CC[C@H]1[C@@H](O)[C@@H]2[C@H](CC[C@]3(C)[C@@H]([C@H](C)CCC(=O)O)CC[C@@H]23)[C@@]2(C)CC[C@@H](O)C[C@@H]12` [OCA, obeticholic acid, reference compound], the “LDH level (blood biochemical test)” value (10 mg/kg/day (G3), vs normal control group (G1), p<0.05) is reported as “significantly higher”, the “ALT level (blood biochemical test)” value (10 mg/kg/day (G3, G4) oral once a day, vs vehicle control group (G2), p<0.05) is reported as “significantly lower” and the “Hydroxyproline expression area level” value (vs normal control group (G1), p<0.001 or p<0.05) is reported as “significantly higher”. The “Hydroxyproline expression area level” value (vs vehicle control group (G2), p<0.001 or p<0.01) was “significantly lower”.

Source: US12011443B2, “Pharmaceutical composition for preventing or treating nonalcoholic steatohepatitis” (J2H BIOTECH INC., priority 2018, dated 2024)
